One molecule from patent US8614202B2, “2α-methyl and 2β-methyl analogs of 19,26,27-trinor-(20S)-1α-hydroxyvitamin D3 and their uses” (Wisconsin Alumni Research Foundation, priority 2004, dated 2013) can be followed below.

For the assay, the system named is 24-hydroxylase (24Ohase) gene promoter in ROS 17/2.8 (bone) cells. Briefly: In vitro transcription assay (24-hydroxylase promoter luciferase reporter). The class given is cell-based. The note with it: ROS 17/2.8 cells, 24Ohase-luciferase, sixteen hours after dosing; read-out: EC50, transcriptional activity in bone cells. As to the method: In Vitro Transcription Assay
Transcription activity was measured in ROS 17/2.8 (bone) cells that were stably transfected with a 24-hydroxylase (24Ohase) gene promoter upstream of a luciferase reporter gene (Arbour et al., 1998). Cells were given a range of doses. Sixteen hours after dosing the cells were harvested and luciferase activities were measured using a luminometer. • RLU=relative luciferase units. Intestinal Calcium Transport and Bone Calcium Mobilization

Turning to `C=C1/C(=C\C=C2/CCC[C@]3(C)[C@@H]([C@H](C)CCCC(C)(C)O)CC[C@@H]23)C[C@@H](O)C[C@@H]1O` [1,25(OH)2D3, 1α,25-dihydroxyvitamin D3, reference compound], the EC50 amounted to 0.19 nM.
